For one molecule, binding results are on record in paper doi:10.1101/2021.11.19.469212.

Results are given in words; binding and its absence hold for the method and conditions named. In cells and extracts the contact can be indirect. A yes stands for co-enrichment or nearness to the bait. Other partners may have been found. Tags and fused reporters may be left off the sequences shown.

The target of this assay is T1, AP4μ^EN-TurboID-V5 (human (endogenous in HeLa)), O00189.
T1 chain: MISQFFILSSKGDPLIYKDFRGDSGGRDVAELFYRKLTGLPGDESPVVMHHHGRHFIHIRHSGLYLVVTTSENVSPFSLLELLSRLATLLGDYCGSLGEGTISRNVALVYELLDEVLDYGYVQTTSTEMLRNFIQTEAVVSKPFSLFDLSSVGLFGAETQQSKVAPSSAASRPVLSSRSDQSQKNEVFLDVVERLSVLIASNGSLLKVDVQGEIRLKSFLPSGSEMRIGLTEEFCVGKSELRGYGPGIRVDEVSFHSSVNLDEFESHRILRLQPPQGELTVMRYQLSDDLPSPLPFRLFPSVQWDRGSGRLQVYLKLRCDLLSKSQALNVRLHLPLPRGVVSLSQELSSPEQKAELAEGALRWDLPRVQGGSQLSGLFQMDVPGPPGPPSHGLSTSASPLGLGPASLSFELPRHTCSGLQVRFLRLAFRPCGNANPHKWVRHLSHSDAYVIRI
In words: proximity labelling. To be noted: remark: other sources report otherwise.

B1: FHF complex subunit (FAM160A1), Q05DH4 1-1040 (protein)
chain: MMSSVSTESKLQQAVSLQGVDPETCMIVFKNHWAQVVKILEKHDPLKNTQAKYGSIPPDEASAVQNYVEHMLFLLIEEQAKDAAMGPILEFVVSENIMEKLFLWSLRREFTDETKIEQLKMYEMLVTQSHQPLLHHKPILKPLMMLLSSCSGTTTPTVEEKLVVLLNQLCSILAKDPSILELFFHTSEDQGAANFLIFSLLIPFIHREGSVGQQARDALLFIMSLSAENTMVAHHIVENTYFCPVLATGLSGLYSSLPTKLEEKGEEWHCLLKDDWLLLPSLVQFMNSLEFCNAVIQVAHPLIRNQLVNYIYNGFLVPVLAPALHKVTVEEVMTTTAYLDLFLRSISEPALLEIFLRFILLHQHENVHILDTLTSRINTPFRLCVVSLALFRTLIGLHCEDVMLQLVLRYLIPCNHMMLSQRWAVKERDCYSVSAAKLLALTPVCCSSGITLTLGNQERDYILWSKCMHDTSGPVERPFPEAFSESACIVEYGKALDISYLQYLWEAHTNILRCMRDCRVWSALYDGDSPDPEMFLQSLTEEGSVSSACPVFGLPQQLPRKTGPQLAPRKDKSQTELEWDDSYDTGISSGADVGSPGPYDDLEVSGPPAPIDPPKHIQEMKKNALLLFKGSYIEESDFQDDVMVYRLCAEKDSEDMKDSQEEAARPPAEAQAEVQSVPINNGPLLSTQPETDSEEEWNRDNSDPFHSEPKEPKQEREPEAAPESNSELASPAPEAEHSSNLTAAHPESEELIAQYDQIIKELDSGAEGLMEQNYPTPDPLLLTKEEEGKEESKGEKEKEGKKELEDEEDDFDSFIAEMPAVETVPSPFVGRDEAAFASRHPVRTQSTPFTGPFISVVLSKLENMLENSLHVNLLLIGIITQLASYPQPLLRSFLLNTNMVFQPSVRSLYQVLASVKNKIEQFASVERDFPGLLIQAQQYLLFRVDMSDMTPAALTKDPIQEASRTGSGKNLLDGPPRVLQPFLTHRTKVAEAPPNLPLPVRNPMLAAALFPEFLKELAALAQEHSILCYKILGDFEDSCC
On to B1, for which the binding entry was “binds”.
